Results are given in words; binding and its absence hold for the method and conditions named. In cells and extracts the contact can be indirect. These calls come from enrichment with a bait or labelling near it, and not all partners need be listed.
B1: solute carrier family 25. member 10 (protein, UniProt Q9UBX3 1-287)
chain: MAAEARVSRWYFGGLASCGAACCTHPLDLLKVHLQTQQEVKLRMTGMALRVVRTDGILALYSGLSASLCRQMTYSLTRFAIYETVRDRVAKGSQGPLPFHEKVLLGSVSGLAGGFVGTPADLVNVRMQNDVKLPQGQRRNYAHALDGLYRVAREEGLRRLFSGATMASSRGALVTVGQLSCYDQAKQLVLSTGYLSDNIFTHFVASFIAGGCATFLCQPLDVLKTRLMNSKGEYQGVFHCAVETAKLGPLAFYKGLVPAGIRLIPHTVLTFVFLEQLRKNFGIKVPS
B2: CDP-diacylglycerol-inositol 3-phosphatidyltransferase (protein, UniProt O14735 1-213)
chain: MPDENIFLFVPNLIGYARIVFAIISFYFMPCCPLTASSFYLLSGLLDAFDGHAARALNQGTRFGAMLDMLTDRCSTMCLLVNLALLYPGATLFFQISMSLDVASHWLHLHSSVVRGSESHKMIDLSGNPVLRIYYTSRPALFTLCAGNELFYCLLYLFHFSEGPLVGSVGLFRMGLWVTAPIALLKSLISVIHLITAARNMAALDAADRAKKK
B3: Acylglycerol kinase lipid kinase (protein, UniProt Q53H12 1-422)
chain: MTVFFKTLRNHWKKTTAGLCLLTWGGHWLYGKHCDNLLRRAACQEAQVFGNQLIPPNAQVKKATVFLNPAACKGKARTLFEKNAAPILHLSGMDVTIVKTDYEGQAKKLLELMENTDVIIVAGGDGTLQEVVTGVLRRTDEATFSKIPIGFIPLGETSSLSHTLFAESGNKVQHITDATLAIVKGETVPLDVLQIKGEKEQPVFAMTGLRWGSFRDAGVKVSKYWYLGPLKIKAAHFFSTLKEWPQTHQASISYTGPTERPPNEPEETPVQRPSLYRRILRRLASYWAQPQDALSQEVSPEVWKDVQLSTIELSITTRNNQLDPTSKEDFLNICIEPDTISKGDFITIGSRKVRNPKLHVEGTECLQASQCTLLIPEGAGGSFSIDSEEYEAMPVEVKLLPRKLQFFCDPRKREQMLTSPTQ
B4: reticulocalbin 1 (protein, UniProt Q15293 30-331)
chain: KPTVRKERVVRPDSELGERPPEDNQSFQYDHEAFLGKEDSKTFDQLTPDESKERLGKIVDRIDNDGDGFVTTEELKTWIKRVQKRYIFDNVAKVWKDYDRDKDDKISWEEYKQATYGYYLGNPAEFHDSSDHHTFKKMLPRDERRFKAADLNGDLTATREEFTAFLHPEEFEHMKEIVVLETLEDIDKNGDGFVDQDEYIADMFSHEENGPEPDWVLSEREQFNEFRDLNKDGKLDKDEIRHWILPQDYDHAQAEARHLVYESDKNKDEKLTKEEILENWNMFVGSQATNYGEDLTKNHDEL
B5: protein disulfide isomerase family A, member 4 (protein, UniProt P13667 21-645)
chain: VAGAEGPDEDSSNRENAIEDEEEEEEEDDDEEEDDLEVKEENGVLVLNDANFDNFVADKDTVLLEFYAPWCGHCKQFAPEYEKIANILKDKDPPIPVAKIDATSASVLASRFDVSGYPTIKILKKGQAVDYEGSRTQEEIVAKVREVSQPDWTPPPEVTLVLTKENFDEVVNDADIILVEFYAPWCGHCKKLAPEYEKAAKELSKRSPPIPLAKVDATAETDLAKRFDVSGYPTLKIFRKGRPYDYNGPREKYGIVDYMIEQSGPPSKEILTLKQVQEFLKDGDDVIIIGVFKGESDPAYQQYQDAANNLREDYKFHHTFSTEIAKFLKVSQGQLVVMQPEKFQSKYEPRSHMMDVQGSTQDSAIKDFVLKYALPLVGHRKVSNDAKRYTRRPLVVVYYSVDFSFDYRAATQFWRSKVLEVAKDFPEYTFAIADEEDYAGEVKDLGLSESGEDVNAAILDESGKKFAMEPEEFDSDTLREFVTAFKKGKLKPVIKSQPVPKNNKGPVKVVVGKTFDSIVMDPKKDVLIEFYAPWCGHCKQLEPVYNSLAKKYKGQKGLVIAKMDATANDVPSDRYKVEGFPTIYFAPSGDKKNPVKFEGGDRDLEHLSKFIEEHATKLSRTKEEL
B6: Calmegin (protein, UniProt O14967 20-610)
chain: EFMDDDVETEDFEENSEEIDVNESELSSEIKYKTPQPIGEVYFAETFDSGRLAGWVLSKAKKDDMDEEISIYDGRWEIEELKENQVPGDRGLVLKSRAKHHAISAVLAKPFIFADKPLIVQYEVNFQDGIDCGGAYIKLLADTDDLILENFYDKTSYIIMFGPDKCGEDYKLHFIFRHKHPKTGVFEEKHAKPPDVDLKKFFTDRKTHLYTLVMNPDDTFEVLVDQTVVNKGSLLEDVVPPIKPPKEIEDPNDKKPEEWDERAKIPDPSAVKPEDWDESEPAQIEDSSVVKPAGWLDDEPKFIPDPNAEKPDDWNEDTDGEWEAPQILNPACRIGCGEWKPPMIDNPKYKGVWRPPLVDNPNYQGIWSPRKIPNPDYFEDDHPFLLTSFSALGLELWSMTSDIYFDNFIICSEKEVADHWAADGWRWKIMIANANKPGVLKQLMAAAEGHPWLWLIYLVTAGVPIALITSFCWPRKVKKKHKDTEYKKTDICIPQTKGVLEQEEKEEKAALEKPMDLEEEKKQNDGEMLEKEEESEPEEKSEEEIEIIEGQEESNQSNKSGSEDEMKEADESTGSGDGPIKSVRKRRVRKD

Sequences of proteins named here, by UniProt entry; tags and fusion partners are left off. Residues count along the entry.
UniProt Q9UNE7: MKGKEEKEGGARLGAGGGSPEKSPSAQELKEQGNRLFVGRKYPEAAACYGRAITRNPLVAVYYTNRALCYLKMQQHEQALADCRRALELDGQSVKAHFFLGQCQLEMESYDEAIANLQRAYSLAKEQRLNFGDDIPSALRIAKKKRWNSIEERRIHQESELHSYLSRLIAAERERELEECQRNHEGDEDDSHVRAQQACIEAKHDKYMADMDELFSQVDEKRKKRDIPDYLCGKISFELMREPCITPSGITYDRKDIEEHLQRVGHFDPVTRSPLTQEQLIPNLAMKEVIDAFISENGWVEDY
UniProt Q9NYU2, residues 43-1555: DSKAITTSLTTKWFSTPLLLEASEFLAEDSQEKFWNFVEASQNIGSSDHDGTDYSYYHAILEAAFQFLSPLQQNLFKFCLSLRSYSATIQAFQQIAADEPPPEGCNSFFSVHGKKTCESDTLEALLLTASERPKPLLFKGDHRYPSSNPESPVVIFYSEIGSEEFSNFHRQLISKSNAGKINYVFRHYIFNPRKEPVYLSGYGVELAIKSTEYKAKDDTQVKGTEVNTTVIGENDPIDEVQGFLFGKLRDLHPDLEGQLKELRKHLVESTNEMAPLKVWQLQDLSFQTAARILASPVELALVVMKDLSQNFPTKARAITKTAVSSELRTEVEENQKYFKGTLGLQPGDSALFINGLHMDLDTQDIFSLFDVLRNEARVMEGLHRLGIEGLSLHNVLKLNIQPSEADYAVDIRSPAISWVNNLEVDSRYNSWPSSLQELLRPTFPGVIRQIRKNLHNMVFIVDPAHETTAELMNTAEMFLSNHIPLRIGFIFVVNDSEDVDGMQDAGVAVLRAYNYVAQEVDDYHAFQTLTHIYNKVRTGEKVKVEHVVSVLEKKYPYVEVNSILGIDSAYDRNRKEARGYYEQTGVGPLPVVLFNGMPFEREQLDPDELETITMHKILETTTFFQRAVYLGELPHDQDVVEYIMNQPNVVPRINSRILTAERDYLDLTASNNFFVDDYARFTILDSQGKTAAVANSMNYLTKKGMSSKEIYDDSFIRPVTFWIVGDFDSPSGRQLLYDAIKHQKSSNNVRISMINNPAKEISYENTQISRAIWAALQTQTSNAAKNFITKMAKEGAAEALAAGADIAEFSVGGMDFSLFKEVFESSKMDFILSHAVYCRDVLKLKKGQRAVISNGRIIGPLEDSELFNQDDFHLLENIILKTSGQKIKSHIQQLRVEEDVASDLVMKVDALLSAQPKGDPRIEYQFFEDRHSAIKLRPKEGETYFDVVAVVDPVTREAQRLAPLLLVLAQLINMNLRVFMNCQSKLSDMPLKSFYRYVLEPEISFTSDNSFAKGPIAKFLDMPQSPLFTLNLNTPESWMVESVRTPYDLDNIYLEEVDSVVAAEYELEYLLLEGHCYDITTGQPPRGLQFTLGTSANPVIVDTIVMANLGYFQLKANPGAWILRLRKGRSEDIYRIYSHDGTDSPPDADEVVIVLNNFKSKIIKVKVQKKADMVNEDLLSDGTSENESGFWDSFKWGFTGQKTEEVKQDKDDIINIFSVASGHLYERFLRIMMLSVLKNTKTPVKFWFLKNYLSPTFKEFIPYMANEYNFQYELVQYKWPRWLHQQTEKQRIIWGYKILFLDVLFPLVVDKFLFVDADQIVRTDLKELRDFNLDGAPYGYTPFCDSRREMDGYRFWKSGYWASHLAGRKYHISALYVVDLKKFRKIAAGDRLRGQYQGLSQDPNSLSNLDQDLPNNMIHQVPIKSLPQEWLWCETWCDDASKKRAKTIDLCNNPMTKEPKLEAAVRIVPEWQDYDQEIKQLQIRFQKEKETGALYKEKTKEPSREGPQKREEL
UniProt P04792: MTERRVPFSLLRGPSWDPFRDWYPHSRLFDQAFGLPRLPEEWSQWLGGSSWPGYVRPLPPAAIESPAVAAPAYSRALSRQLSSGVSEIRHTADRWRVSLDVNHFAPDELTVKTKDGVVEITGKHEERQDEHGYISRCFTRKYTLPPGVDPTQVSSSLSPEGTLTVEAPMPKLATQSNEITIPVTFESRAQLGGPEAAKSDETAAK
UniProt Q8IXI2: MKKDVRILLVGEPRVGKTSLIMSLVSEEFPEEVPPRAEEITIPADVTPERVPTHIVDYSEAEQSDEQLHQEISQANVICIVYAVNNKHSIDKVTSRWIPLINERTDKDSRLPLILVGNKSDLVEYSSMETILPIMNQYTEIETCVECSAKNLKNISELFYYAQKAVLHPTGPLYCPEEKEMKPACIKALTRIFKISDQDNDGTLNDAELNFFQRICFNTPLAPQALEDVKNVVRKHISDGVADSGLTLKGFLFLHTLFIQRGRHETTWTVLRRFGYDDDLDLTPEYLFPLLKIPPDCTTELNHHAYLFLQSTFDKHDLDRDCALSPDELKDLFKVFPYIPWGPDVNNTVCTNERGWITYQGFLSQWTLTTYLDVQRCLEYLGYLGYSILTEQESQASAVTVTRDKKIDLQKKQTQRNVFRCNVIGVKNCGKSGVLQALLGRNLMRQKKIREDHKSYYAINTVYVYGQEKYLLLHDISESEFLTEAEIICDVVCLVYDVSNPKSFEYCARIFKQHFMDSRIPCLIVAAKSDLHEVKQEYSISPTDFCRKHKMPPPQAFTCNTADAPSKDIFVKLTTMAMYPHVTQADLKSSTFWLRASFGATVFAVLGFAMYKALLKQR
UniProt Q9BUF5: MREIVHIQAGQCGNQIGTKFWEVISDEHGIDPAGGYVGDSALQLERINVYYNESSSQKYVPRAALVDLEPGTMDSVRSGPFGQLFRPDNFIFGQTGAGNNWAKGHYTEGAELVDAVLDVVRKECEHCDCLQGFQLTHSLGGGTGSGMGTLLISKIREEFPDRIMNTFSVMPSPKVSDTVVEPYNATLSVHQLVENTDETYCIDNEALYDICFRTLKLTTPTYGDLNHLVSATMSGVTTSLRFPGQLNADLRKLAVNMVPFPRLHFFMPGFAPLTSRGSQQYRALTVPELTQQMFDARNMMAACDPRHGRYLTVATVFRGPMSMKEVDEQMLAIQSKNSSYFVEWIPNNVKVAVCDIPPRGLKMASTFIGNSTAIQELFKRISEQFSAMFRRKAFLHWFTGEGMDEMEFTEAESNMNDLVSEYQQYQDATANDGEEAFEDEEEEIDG

Biological target: FLAG-tagged wild-type PCSK9 (proprotein convertase subtilisin/kexin type 9) (human) (UniProt Q8NBP7)
Experiment: affinity purification with mass spectrometry; anti-FLAG immunoprecipitation of FLAG-tagged wild-type PCSK9 from extracts of a stable T-Rex-293 line, elution with 3xFLAG peptide, limited electrophoresis, LC-MS/MS; empty-vector line as negative control; three experiments

| Molecule | binding |
| --- | --- |
| STIP1 homology and U-box containing protein 1 (from UniProt Q9UNE7 1-303) | binds |
| UDP-glucose glycoprotein glucosyltransferase 1 (from UniProt Q9NYU2 43-1555) | binds |
| heat shock 27kDa protein 1 (from UniProt P04792 1-205) | binds |
| ras homolog gene family, member T1 (from UniProt Q8IXI2 1-618) | binds |
| solute carrier family 25 member 1 (from UniProt P53007 14-311) | binds |
| tubulin, beta 6 (from UniProt Q9BUF5 1-446) | binds |
| B1 | binds |
| B2 | binds |
| B3 | binds |
| B4 | binds |
| B5 | binds |
| B6 | binds |

From paper PMC6268524
